These are yes or no findings as the source states them, for the method shown.

Protein sequences, listed by entry. Tags and fused reporters are not part of them. Lines headed by an entry give the natural chain unless they say otherwise; changes in a name come on top.
UniProt P51140: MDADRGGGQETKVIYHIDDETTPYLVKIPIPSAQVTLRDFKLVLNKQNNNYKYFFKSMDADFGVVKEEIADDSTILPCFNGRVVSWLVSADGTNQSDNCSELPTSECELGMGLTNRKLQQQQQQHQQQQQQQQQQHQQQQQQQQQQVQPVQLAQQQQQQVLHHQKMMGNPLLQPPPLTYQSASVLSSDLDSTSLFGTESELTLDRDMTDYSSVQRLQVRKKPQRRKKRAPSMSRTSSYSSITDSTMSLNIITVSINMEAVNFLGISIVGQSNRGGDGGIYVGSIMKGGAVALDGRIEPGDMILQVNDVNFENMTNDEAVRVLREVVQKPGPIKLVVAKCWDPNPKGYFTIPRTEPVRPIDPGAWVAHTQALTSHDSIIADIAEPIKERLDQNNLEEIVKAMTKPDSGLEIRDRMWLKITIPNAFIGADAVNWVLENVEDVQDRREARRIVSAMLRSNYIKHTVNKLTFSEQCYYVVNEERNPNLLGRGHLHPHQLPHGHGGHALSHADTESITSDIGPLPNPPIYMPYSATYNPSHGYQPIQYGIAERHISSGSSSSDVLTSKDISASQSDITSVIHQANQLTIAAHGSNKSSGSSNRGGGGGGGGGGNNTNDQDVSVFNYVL
UniProt Q9VQ36: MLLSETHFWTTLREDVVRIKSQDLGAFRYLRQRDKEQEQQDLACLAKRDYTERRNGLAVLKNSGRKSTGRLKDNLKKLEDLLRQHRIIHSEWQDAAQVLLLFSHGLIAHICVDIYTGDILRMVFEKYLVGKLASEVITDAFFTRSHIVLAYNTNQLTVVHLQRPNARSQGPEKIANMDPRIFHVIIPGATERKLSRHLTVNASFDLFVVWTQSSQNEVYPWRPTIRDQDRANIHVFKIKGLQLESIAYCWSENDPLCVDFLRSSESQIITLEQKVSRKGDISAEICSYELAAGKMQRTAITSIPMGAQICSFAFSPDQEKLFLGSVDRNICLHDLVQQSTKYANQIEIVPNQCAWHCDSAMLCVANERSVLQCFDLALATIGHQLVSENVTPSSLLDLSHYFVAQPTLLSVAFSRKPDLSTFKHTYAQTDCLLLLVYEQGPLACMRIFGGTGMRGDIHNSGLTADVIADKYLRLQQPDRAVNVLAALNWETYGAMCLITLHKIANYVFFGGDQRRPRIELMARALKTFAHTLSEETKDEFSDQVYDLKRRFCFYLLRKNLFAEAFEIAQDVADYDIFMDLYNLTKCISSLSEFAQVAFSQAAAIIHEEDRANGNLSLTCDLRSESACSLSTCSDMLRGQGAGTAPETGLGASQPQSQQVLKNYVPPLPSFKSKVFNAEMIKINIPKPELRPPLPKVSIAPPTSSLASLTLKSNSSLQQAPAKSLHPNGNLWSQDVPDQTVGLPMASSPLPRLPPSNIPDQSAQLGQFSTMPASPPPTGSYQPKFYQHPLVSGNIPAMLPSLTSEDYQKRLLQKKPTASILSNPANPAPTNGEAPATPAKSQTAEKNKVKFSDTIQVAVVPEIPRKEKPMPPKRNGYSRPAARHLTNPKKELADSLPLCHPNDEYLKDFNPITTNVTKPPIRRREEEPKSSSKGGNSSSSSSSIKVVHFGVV

Consider one substance from paper PMC5386880.

The assay addresses Dishevelled (Dsh), full length, yeast two-hybrid fusion (Drosophila) (UniProt P51140). The experiment in a line: two-hybrid; yeast strain AH109, Matchmaker Two-Hybrid System 3 (pGADT7 and pGBKT7 cotransformed); growth on SD/-Ade/-His/-Leu/-Trp with X-alpha-Gal taken as positive.

As to “Frtz with aa 1-300 deleted (from UniProt Q9VQ36)”, the binding entry was “no binding”.
